Values from PubChem BioAssay AID1259405 (NCATS, 2018)
In all, the deposit lists about 50,000 reagents; below is a part drawn at random. About 4,000 of all reagents (8%) count as active. 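Mouse siRNA library applied to hamster cells; one well for each siRNA.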 A number with no mark means an inactive call. Reagents against one gene are numbered here. No sequences are given here.

Aim: 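Silenced genes that increase secreted GFP made by CHO cells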 (primary screen)
Cells: Chinese hamster CHO-K1 ovary cells with stable secreted eGFP expression
Reagents: single siRNA against mouse genes, 0.8 pmol siRNA per well (2 µl of 400 nM stock)
Time to read-out: 3 days
Measurement: 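Percent of the per-plate non-targeting control median for intracellular GFP per well by laser scanning cytometry and for cell viability by ATP luminescence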
Scale: GFP, % of control: higher = more GFP per well, higher productivity; viability (ATP), % of control: higher = more viable cells (more ATP)
Active means: 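a knock-down is called active if GFP reaches 120% or more of non-targeting control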

target gene | siRNA no. | GFP, % of control | viability (ATP), % of control
Ndufb4 | 1 | 67 | 57.2
Ndufb4 | 2 | 123 (active) | 56.1
Ano6 | 1 | 63.7 | 98.6
Ano6 | 2 | 46.5 | 102
Ano6 | 3 | 78.8 | 99
Rnh1 | 1 | 23.2 | 34.1
Rnh1 | 2 | 62.6 | 51.2
Rnh1 | 3 | 51.6 | 67.8
Tmem39a | 1 | 82.8 | 38.9
Tmem39a | 2 | 90 | 51.8
Tmem39a | 3 | 135 (active) | 86
Tcl1b1 | 1 | 49.7 | 62.2
Tcl1b1 | 2 | 62.6 | 62.5
Tcl1b1 | 3 | 99 | 73.1
Bmpr1a | 1 | 73.4 | 73.5
Ccnk | 1 | 136 (active) | 106
Ccnk | 2 | 126 (active) | 63
Ccnk | 3 | 94.9 | 96.1
Nudt1 | 1 | 55 | 22.2
Nudt1 | 2 | 100 | 83.7
Nudt1 | 3 | 143 (active) | 85
Serpinb9d | 1 | 87.7 | 77.7
Serpinb9d | 2 | 100 | 82.2
Serpinb9d | 3 | 131 (active) | 119
Serpinf1 | 1 | 97.6 | 116
Serpinf1 | 2 | 62.7 | 51.1
Serpinf1 | 3 | 64.8 | 57.9
Lrrc52 | 1 | 31.1 | 32.1
Lrrc52 | 2 | 88.2 | 99.5
Lrrc52 | 3 | 197 (active) | 112
Toe1 | 1 | 60.8 | 75.8
Toe1 | 2 | 63.4 | 94.7
Toe1 | 3 | 105 | 109
H3c15 | 1 | 64.1 | 28.9
H3c15 | 2 | 108 | 123
H3c15 | 3 | 50.5 | 76.1
